Reference: PMC6451128

Protein sequences, listed by entry. Tags and fused reporters are not part of them. Residues count along the entry.
UniProt Q9H611, 206-620: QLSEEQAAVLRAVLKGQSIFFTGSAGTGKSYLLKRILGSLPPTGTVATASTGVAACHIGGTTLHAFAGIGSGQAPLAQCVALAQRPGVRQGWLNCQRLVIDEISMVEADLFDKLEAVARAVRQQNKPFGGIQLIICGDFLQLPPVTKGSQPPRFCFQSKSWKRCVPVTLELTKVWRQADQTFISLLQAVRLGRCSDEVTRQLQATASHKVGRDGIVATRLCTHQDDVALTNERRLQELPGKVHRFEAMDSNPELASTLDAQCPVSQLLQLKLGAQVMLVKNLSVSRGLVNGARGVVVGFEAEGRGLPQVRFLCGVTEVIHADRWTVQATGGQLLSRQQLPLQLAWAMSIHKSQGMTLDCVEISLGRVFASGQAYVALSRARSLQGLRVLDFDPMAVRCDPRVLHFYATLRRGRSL
UniProt Q9H611, 206-620 H555A: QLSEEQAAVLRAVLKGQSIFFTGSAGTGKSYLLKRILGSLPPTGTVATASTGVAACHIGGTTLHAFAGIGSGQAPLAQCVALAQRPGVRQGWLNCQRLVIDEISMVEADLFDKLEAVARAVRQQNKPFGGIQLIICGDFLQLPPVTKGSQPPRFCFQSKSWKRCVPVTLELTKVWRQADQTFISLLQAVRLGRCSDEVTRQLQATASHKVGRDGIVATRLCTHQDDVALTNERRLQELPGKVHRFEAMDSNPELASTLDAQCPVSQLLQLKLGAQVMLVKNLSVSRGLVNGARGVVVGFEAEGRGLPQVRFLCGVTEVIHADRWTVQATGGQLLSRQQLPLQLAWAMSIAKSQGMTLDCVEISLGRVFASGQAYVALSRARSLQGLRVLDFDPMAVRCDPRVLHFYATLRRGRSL
UniProt Q9H611, 206-620 H269A: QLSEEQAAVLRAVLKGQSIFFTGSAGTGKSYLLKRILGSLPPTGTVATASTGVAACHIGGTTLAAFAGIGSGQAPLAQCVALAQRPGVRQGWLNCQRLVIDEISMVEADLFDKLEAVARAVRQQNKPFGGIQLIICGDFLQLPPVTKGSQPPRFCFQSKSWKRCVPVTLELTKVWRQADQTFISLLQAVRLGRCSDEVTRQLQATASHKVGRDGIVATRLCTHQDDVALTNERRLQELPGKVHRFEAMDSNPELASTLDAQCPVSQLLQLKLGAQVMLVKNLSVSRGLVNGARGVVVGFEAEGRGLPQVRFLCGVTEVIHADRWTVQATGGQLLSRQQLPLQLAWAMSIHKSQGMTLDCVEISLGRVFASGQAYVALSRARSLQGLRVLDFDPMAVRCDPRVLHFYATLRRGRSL

Columns and labels:
Test in all cases: EMSA
[1] = target: hPIF1HD wild-type (human) (UniProt Q9H611); conditions: minimal binding under G4 assay conditions; 20 mM HEPES-NaOH pH 7.5 (Results say pH 7.2), 135 mM NaCl, 5% glycerol, 1 mM DTT, 1 mg/ml BSA, 20 min at 20 C; 0.4 nM T(35); G4 assay: 0.1 nM G4 DNA; recombinant protein; residues 206-620; protein details: His tag removed by thrombin, GSRM left at N-term; label: 32P; single-stranded DNA
[2] = target: hPIF1HD H555A (human) (UniProt Q9H611); conditions: no nucleotide; 20 mM HEPES-NaOH pH 7.5 (Results say pH 7.2), 135 mM NaCl, 5% glycerol, 1 mM DTT, 1 mg/ml BSA, 20 min at 20 C; 0.4 nM T(35); G4 assay: 0.1 nM G4 DNA; recombinant protein; residues 206-620; protein details: His tag removed, GSRM left; label: 5' 32P (PNK); single-stranded DNA
[3] = target: hPIF1HD H269A (human) (UniProt Q9H611); conditions: no nucleotide; 20 mM HEPES-NaOH pH 7.5 (Results say pH 7.2), 135 mM NaCl, 5% glycerol, 1 mM DTT, 1 mg/ml BSA, 20 min at 20 C; 0.4 nM T(35); G4 assay: 0.1 nM G4 DNA; recombinant protein; residues 206-620; protein details: His tag removed, GSRM left; label: 5' 32P (PNK); single-stranded DNA

| Sequence | binding result [1] | binding signal (fold decrease in affinity vs WT) [2] | binding signal (fold decrease in affinity vs WT) [3] |
| --- | --- | --- | --- |
| TTTTTTTTTTGGGGTTTTGGGG [single-stranded precursor of G4 DNA] | binds more weakly |  |  |
| TTTTTTTTTTTTTTTTTTTTTTTTTTTTTTTTTTT [poly-T(35)] |  | > 50 | > 50 |

Construct, isoform or probe ends are uncertain for at least one entry. For part of these data: Weaker means in comparison with the reference protein, sequence or condition of that experiment. For part of these data: The direction of at least one scale is not stated here.
